Measurements: patent US20240277781A1, “Compositions Comprising Microbes and Methods of Use and Making Thereof” (Pendulum Therapeutics, Inc., priority 2021, published 2024)

Test system: formulation strains (AMUC, BINF, CBEI, CBUT, EHAL)
Format: cell-based

Cc1cnc(C(=O)NCCc2ccc(S(=O)(=O)NC(=O)NC3CCCCC3)cc2)cn1 [glipizide]
growth inhibition of formulation strains (yield decrease, lag increase): substantially muted inhibitory effect
